Test results taken from PubChem BioAssay AID1766 (National Center for Advancing Translational Sciences (NCATS), 2009).
The whole screen tested about 290,000 compounds, of which fewer than 10 were called active. Only results without a clear call are listed here; the source files them as inconclusive. Calls come from the whole dose curve; as a rule, active = well fitted curve in the direction sought with a large enough effect in the polarisation (not every such curve was filed as active); inconclusive = small, poorly fitted or top-dose-only effect, or effect the other way, or a change in a side signal; inactive = no such curve, though single readings can be large or run the other way; the % refers to the polarisation.

Experiment: qHTS Assay for Inhibitors Targeting the Menin-MLL Interaction in MLL Related Leukemias: Competition With Fluorescein Labeled MLL-derived Peptide
Conditions: Fluorescence polarization, fluorescein-MLL peptide displacement from menin
In the case of `CSc1ccccc1C(=O)NCC1(N2CCCCC2)CCCCC1`, the Potency was inconclusive: 39.8 µM.
